Data from PubChem BioAssay AID1671190 (National Center for Advancing Translational Sciences (NCATS), 2021).
Where “and” joins values, the source holds several entries; their conditions need not be identical. Equal values may be shown once. Hit rate of the full screen: of about 580,000 compounds, about 6,100 (1.1%) were called active. This list was built around the results that the source calls inconclusive (neither active nor inactive); the mix of calls is not that of the screen. Calls come from the whole dose curve; as a rule, active = well fitted inhibition curve with a large enough effect; inconclusive = small, poorly fitted or top-dose-only effect, or another doubt; inactive = no such curve, though single readings can be large or run the other way. Where the call is inconclusive, the potency comes from a doubtful curve fit.

Sequences of proteins named here, by UniProt entry; tags and fusion partners are left off. A change or cut given only in a name is not applied to a line headed by its entry.
UniProt P18054: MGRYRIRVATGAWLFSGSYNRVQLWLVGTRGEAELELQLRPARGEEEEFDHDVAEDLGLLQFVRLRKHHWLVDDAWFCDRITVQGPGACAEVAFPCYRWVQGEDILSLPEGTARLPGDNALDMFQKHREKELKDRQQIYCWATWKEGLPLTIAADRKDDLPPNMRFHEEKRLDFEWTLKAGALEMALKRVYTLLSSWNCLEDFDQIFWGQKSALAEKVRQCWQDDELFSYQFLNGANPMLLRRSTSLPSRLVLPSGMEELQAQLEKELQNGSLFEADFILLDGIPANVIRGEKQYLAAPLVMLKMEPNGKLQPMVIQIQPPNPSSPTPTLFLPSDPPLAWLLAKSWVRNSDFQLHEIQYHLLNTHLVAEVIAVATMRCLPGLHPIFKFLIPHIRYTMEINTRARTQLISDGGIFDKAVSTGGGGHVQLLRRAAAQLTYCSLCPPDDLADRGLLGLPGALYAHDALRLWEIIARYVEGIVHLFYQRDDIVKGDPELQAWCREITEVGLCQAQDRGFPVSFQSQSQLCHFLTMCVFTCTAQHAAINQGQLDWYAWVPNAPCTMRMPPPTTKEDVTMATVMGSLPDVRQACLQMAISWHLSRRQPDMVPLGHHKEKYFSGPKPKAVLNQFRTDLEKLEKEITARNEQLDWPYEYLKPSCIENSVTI

Each compound was assayed against Polyunsaturated fatty acid lipoxygenase ALOX12 (Homo sapiens) (UniProt P18054) (assay: Primary qHTS assay for inhibitors of human arachidonate 12S-lipoxygenase (ALOX12): Round 2). Conditions: purified 12hLO, xylenol orange hydroperoxide absorbance; activity change, negative = inhibition: at 108 µM (top of the series) unless noted.
Outline: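 Purified human 12hLO (150 nM final) in 25 mM Hepes, 0.01% Triton X-100, pH 7.0 was preincubated 15 min at room temperature with compound. Then 40 uM arachidonic acid was added, 30 min. Hydroperoxide was read by Fe-XO absorbance ratio 573/405 nm.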
% is set by controls: 0 for no effect and ±100 for the full control effect; potency is the fitted concentration of half-maximal effect.

How did the Potency turn out when Brc1ccc2nc(-c3ccccc3)c(Cc3ccccc3)n2c1 was run?
Its Potency is inconclusive: 79.4 µM [inhibitor, partial curve, poor fit].

With Cc1ccc2nc(CSc3nnc(-c4ccco4)o3)cc(=O)n2c1 as the compound, how does the Potency read?
Its Potency is inconclusive: 44.7 µM [inhibitor, partial curve, poor fit].

For CCN(C(=O)CCNC(=O)c1ccccc1C)C12CC3CC(CC(C3)C1)C2, which Potency is on record?
The Potency was inconclusive: 112 µM [inhibitor, single point].

CN(C)C(=O)c1ccc(NC(=O)c2ccc(C#N)cc2)cc1 was tested. Which “activity change, negative = inhibition” value did it give?
The value was inactive: -13.7%.

How did the Potency turn out when CCN(Cc1nc(-c2ccc(OC)cc2)oc1C)S(=O)(=O)c1ccc(Cl)cc1 was run?
The Potency was inconclusive: 44.7 µM [inhibitor, partial curve, poor fit].

With COc1ccc(-c2nc(S(=O)(=O)c3ccccc3)c(N3CCCCC3)o2)cc1 as the compound, how does the Potency read?
Its Potency is inconclusive: 56.2 µM [inhibitor, partial curve, poor fit].

CCC(C)NCCCOc1ccc(Cl)cc1C(C)(C)C (centres undefined) was tested. Which Potency did it give?
Its Potency is inconclusive: 0.199 µM [inhibitor, full curve, poor fit].

For COc1ccc(C[C@H]2CN3C(=NC[C@H]3C)N2CCNC(=O)CCC2CCCCC2)cc1, which Potency is on record?
Its Potency is inconclusive: 0.316 µM [inhibitor, full curve, poor fit].

With CC(O)CNS(=O)(=O)c1ccc(Cl)c(C(=O)O)c1 (centres undefined) as the compound, how does the Potency read?
Its Potency is inconclusive: 0.562 µM [inhibitor, full curve, poor fit].

How did the “activity change, negative = inhibition” value turn out when COc1cccc(C(=O)Nc2cc([N+](=O)[O-])ccc2N2CCN(C)CC2)c1 was run?
Its value is inactive: 11.3%.

Which Potency does the source give for CCCN1C(=O)/C(=C/c2ccc(OCc3ccc(C(=O)O)cc3)c(OC)c2)NC1=S here?
Its Potency is inconclusive: 79.4 µM [inhibitor, partial curve, poor fit].

For CCOC(=O)N1CCN(S(=O)(=O)c2ccc3c4c(cccc24)C(=O)N3)CC1, which “activity change, negative = inhibition” value is on record?
Its value is inactive: 0%.

CCOc1cccc(CNCCO)c1OCc1ccc(Cl)cc1Cl was tested. Which “activity change, negative = inhibition” value did it give?
Its value is inactive: -13.7%.

O=C(COC(=O)Cn1cnc2ccccc21)Nc1ccccc1C(F)(F)F was tested. Which Potency did it give?
The Potency was inconclusive: 15.8 µM [inhibitor, partial curve, poor fit].

O=C(Cc1cccs1)Nc1ccc(F)cc1F was tested. Which Potency did it give?
The Potency was inconclusive: 100 µM [inhibitor, single point].

With CNc1nc(-c2cccs2)cc(C(F)(F)F)c1C#N as the compound, how does the Potency read?
Its Potency is inconclusive: 100 µM [inhibitor, partial curve, poor fit].

CCc1nc2c(c(-c3ccc(OC)cc3)n1)CCN(C(=O)c1ccc3c(c1)OCO3)CC2 was tested. Which activity change, negative = inhibition did it give?
Its activity change, negative = inhibition is inactive: 2.1% [at 6.33 µM].

For COCCNC(=O)C1C(=O)Nc2ccccc2C(=O)N1C1CCCC1 (centres undefined), which Potency is on record?
The Potency was inconclusive: 7.94 µM [inhibitor, full curve].

For O=C(Nc1ccc(F)c([N+](=O)[O-])c1)C(=O)c1c(O)[nH]c2ccccc12, which “activity change, negative = inhibition” value is on record?
The value was inactive: 0%.

How did the “activity change, negative = inhibition” value turn out when Cc1nc(NC(=O)c2cccc(OCc3ccccc3)c2)ccc1Br was run?
Its value is inactive: -15%.

How did the “activity change, negative = inhibition” value turn out when CCOc1ccccc1CNC(=O)C1CCN(c2nnc(N3CCCC3=O)s2)CC1 was run?
Its value is inactive: 5.14%.

How did the “activity change, negative = inhibition” value turn out when COc1ccc(Cl)cc1C(=O)N1CCC(N2CC3CC(C2)[C@H]2CCCC(=O)N2C3)CC1 (some centres undefined) was run?
The value was inactive: 24.1%.

N#Cc1cc(F)cc(OC[C@@H](O)CN2CCC(C(O)(c3ccccc3)c3ccccc3)CC2)c1 was tested. Which Potency did it give?
Its Potency is inconclusive: 141 µM [inhibitor, partial curve, poor fit].

Which Potency does the source give for S=c1[nH]nc(-c2ccncc2)n1/N=C/c1ccccc1 here?
The Potency was inconclusive: 56.2 µM [inhibitor, partial curve, poor fit].

How did the Potency turn out when Nc1ccc(SC(F)(F)F)cc1 was run?
The Potency was inconclusive: 50.1 µM [inhibitor, partial curve, poor fit] and inconclusive: 7.08 µM [inhibitor, full curve, poor fit].

With COc1ccc(C(=O)/C=C/C(=O)N(Cc2ccc3c(c2)OCO3)C(C(=O)NC2CCCCC2)c2ccncc2)c(O)c1 (centres undefined) as the compound, how does the “activity change, negative = inhibition” value read?
The value was inactive: -6.72%.

COc1ccc(NCc2nc3ccccc3n2CCOc2ccc(C)cc2)cc1 was tested. Which Potency did it give?
The Potency was inconclusive: 158 µM [inhibitor, partial curve, poor fit].

Cc1ccc(NC(=O)c2sc(N)nc2-c2ccccc2)cc1C was tested. Which Potency did it give?
Its Potency is inconclusive: 100 µM [inhibitor, single point].

Which Potency does the source give for Cc1ccc([C@H]2C[C@@H](n3cc(C4CC4)nn3)[C@H](O)CN2CC2CCCCC2)cc1 here?
The Potency was inconclusive: 100 µM [inhibitor, single point].

How did the Potency turn out when Cc1[nH]c2ccc(C(=O)NCC(=O)NC(C)C)cc2c1C was run?
Its Potency is inconclusive: 63.1 µM [inhibitor, partial curve, poor fit].

With CC1=CC(=NOS(=O)(=O)c2ccc(C)cc2)CC(C)(C)C1 as the compound, how does the Potency read?
Its Potency is inconclusive: 28.2 µM [inhibitor, partial curve].

Which “activity change, negative = inhibition” value does the source give for O=C(Nc1ccccn1)c1ccc(Br)c(S(=O)(=O)N2CCCCC2)c1 here?
The value was inactive: 9.97%.

With C/C(Cn1cnc([N+](=O)[O-])n1)=N\NC(=O)c1cccnc1 as the compound, how does the “activity change, negative = inhibition” value read?
Its value is inactive: -0.006%.

Which Potency does the source give for C(=Nc1ccc(N2CCOCC2)cc1)c1c[nH]c2ccccc12 here?
Its Potency is inconclusive: 44.7 µM [inhibitor, partial curve, poor fit].

Which Potency does the source give for O=C(Nc1nnc(SCC(=O)N2CCCC2)s1)C1CC(=O)N(c2ccccc2)C1 (centres undefined) here?
The Potency was inconclusive: 35.5 µM [inhibitor, single point].

COc1ccc(-c2noc([C@@H](C)NC(=O)c3nc4ccccc4s3)c2C(=O)O)cc1 was tested. Which Potency did it give?
The Potency was inconclusive: 14.1 µM [inhibitor, partial curve].

With CONC(=O)C(C)c1ccc2cc(OC)ccc2c1 (centres undefined) as the compound, how does the Potency read?
The Potency was inconclusive: 112 µM [inhibitor, single point].

For COc1ccccc1OCc1nc(C#N)c(N2CCC(Cc3ccccc3)CC2)o1, which “activity change, negative = inhibition” value is on record?
Its value is inactive: 33%.

COC(=O)[C@@]12CCCCN1[C@H](c1ccc(-c3ccc(C(C)=O)cc3)cc1)[C@H]1C(=O)N(C)C(=O)[C@H]12 was tested. Which “activity change, negative = inhibition” value did it give?
Its value is inactive: -3.56%.

CCC(C)N[C@H]1CS(=O)(=O)C[C@@H]1S(=O)(=O)c1ccccc1 (some centres undefined) was tested. Which Potency did it give?
Its Potency is inconclusive: 35.5 µM [inhibitor, single point].

How did the Potency turn out when Cc1ccc(-c2cc(C(=O)NCc3ccccc3)c3ccccc3n2)o1 was run?
The Potency was inconclusive: 44.7 µM [inhibitor, partial curve, poor fit].

How did the Potency turn out when O=C(NCC(c1ccc(Cl)cc1)N1CCCCC1)c1ccccc1 (centres undefined) was run?
The Potency was inconclusive: 126 µM [inhibitor, single point].

CCCOc1ccc(C2C(C(=O)c3cc4ccccc4o3)=C(O)C(=O)N2c2cc(C)on2)cc1OC (centres undefined) was tested. Which Potency did it give?
Its Potency is inconclusive: 70.8 µM [inhibitor, partial curve, poor fit] and inconclusive: 50.1 µM [inhibitor, partial curve, poor fit].

For Cc1cccc(C)c1NC(=O)COC(=O)/C=C/c1ccc(S(=O)(=O)N2CCOCC2)cc1, which “activity change, negative = inhibition” value is on record?
The value was inactive: -2.1%.

How did the Potency turn out when O=C(C1COc2ccccc2O1)N1CCN(S(=O)(=O)c2cc(F)ccc2F)CC1 (centres undefined) was run?
Its Potency is inconclusive: 100 µM [inhibitor, single point].

How did the “activity change, negative = inhibition” value turn out when CCOc1ccc(C(=O)Nc2cccc3cccnc23)cc1 was run?
The value was inactive: 5.68%.

COCCn1nc2cc(C(=O)NCC34CC5CC(CC(C5)C3)C4)ccc2c1OC was tested. Which Potency did it give?
Its Potency is inconclusive: 35.5 µM [inhibitor, partial curve, poor fit].

With COc1ccc(NC(=O)N[C@H]2[C@H](O)[C@@H](Oc3ccccc3)[C@@H]3OC[C@H]2O3)cc1 as the compound, how does the “activity change, negative = inhibition” value read?
The value was inactive: 13.3% [at 176 µM].

Which Potency does the source give for Cc1ccc(OCC(=O)OC(C)CN2CCCCC2)cc1 (centres undefined) here?
Its Potency is inconclusive: 56.2 µM [inhibitor, partial curve, poor fit].

How did the Potency turn out when CCn1c(C)cc(-c2csc(NCc3ccccc3OC)n2)c1C was run?
Its Potency is inconclusive: 22.4 µM [inhibitor, partial curve, poor fit].

Which “activity change, negative = inhibition” value does the source give for CCCn1nc(C(=O)NNC(=O)c2ccc(OC(F)F)cc2)c2ccccc2c1=O here?
Its value is inactive: -0.241%.

With CCC(CO)NS(=O)(=O)c1ccc(Cl)c(Cl)c1 (centres undefined) as the compound, how does the “activity change, negative = inhibition” value read?
The value was inactive: 12%.

Which Potency does the source give for COc1ccccc1-c1cncnc1NCCN1CCOCC1 here?
The Potency was inconclusive: 12.6 µM [inhibitor, full curve, poor fit].

How did the Potency turn out when CCOc1ccc(C2/C(=C(\O)c3ccc(C)c(F)c3)C(=O)C(=O)N2Cc2ccco2)cc1OC (centres undefined) was run?
Its Potency is inconclusive: 15.8 µM [inhibitor, partial curve, poor fit].

CC(=O)N1CCC2(CCCN(C(=O)Nc3cccc(C#N)c3)C2)CC1 was tested. Which Potency did it give?
Its Potency is inconclusive: 31.6 µM [inhibitor, single point].

Cc1ccc(C(=O)OCC(=O)NCc2ccc3c(c2)OCO3)cc1F was tested. Which “activity change, negative = inhibition” value did it give?
The value was inactive: 3.82%.

Which Potency does the source give for CC(=O)Nc1cccc(C(=O)NC2CCCc3c2cnn3-c2cc(C)cc(C)c2)c1 (centres undefined) here?
Its Potency is inconclusive: 126 µM [inhibitor, single point].

With CCCOc1ccc(C(=O)N(Cc2cccs2)C2CCS(=O)(=O)C2)cc1 (centres undefined) as the compound, how does the Potency read?
The Potency was inconclusive: 100 µM [inhibitor, single point].

With CC(C)C(Br)C(=O)Nc1ccc(Cl)c(Cl)c1 (centres undefined) as the compound, how does the Potency read?
Its Potency is inconclusive: 7.08 µM [inhibitor, full curve, poor fit].

Which Potency does the source give for O=C(Cc1csc(-c2ccsc2)n1)Nc1ccnn1Cc1c(Cl)cccc1Cl here?
Its Potency is inconclusive: 0.501 µM [inhibitor, full curve, poor fit].

CCCNC(=O)NC(=O)CSc1nc2ccccc2c(=O)n1CC was tested. Which “activity change, negative = inhibition” value did it give?
The value was inactive: -7.17%.

How did the Potency turn out when CCC(C)(C)C1CCC2(CC1)NC(=O)N(CC(=O)NCCc1ccc(OC)c(OC)c1)C2=O (centres undefined) was run?
The Potency was inconclusive: 141 µM [inhibitor, single point].

How did the Potency turn out when COc1ccc(S(=O)(=O)Nc2c(C(=O)O)[nH]c3ccc(OC)cc23)cc1 was run?
Its Potency is inconclusive: 39.8 µM [inhibitor, partial curve, poor fit].

For Cc1cc2oc(=O)cc(CSc3nnnn3C3CC3)c2cc1C, which Potency is on record?
The Potency was inconclusive: 56.2 µM [inhibitor, partial curve, poor fit].
